From patent publication US20210292680A1, “MULTIFUNCTIONAL AROMATIC ALCOHOLS FOR PERSONAL CARE, HOME CARE AND INDUSTRIAL AND INSTITUTIONAL COMPOSITIONS” (EMERALD KALAMA CHEMICAL, LLC, priority 2018, published 2021)

Test: Process defoaming evaluation (modified ASTM E2407-04)
Conditions: 0.4 wt. % aromatic alcohol; 2.0 wt. % SLES solution
Procedure: Defoaming evaluation: Process defoaming was tested using a modified ASTM method (E2407-04 (2015) Standard Test Method for Effectiveness of Defoaming Agents). 250 mL of a 2.0 wt. % surfactant solution was blended at the highest speed setting for 30 seconds, then let sit for 3 minutes. The initial foam height is measured, and then 0.4 wt. % defoamer is dropped onto the surface of the foam. The blender is turned on low speed and the solution is mixed for 1 minute. Foam height is re-measured after an additional five minutes of sitting.
Process defoaming was tested using a modified ASTM method (E2407-04 (2015) Standard Test Method for Effectiveness of Defoaming Agents) to assess surfactants and determine if there was a relationship between foam destabilization and surfactant type. Two different surfactant solutions were tested. 2.0 wt. % surfactant solutions were prepared as controls using BioSoft® N1-7 and SLES. Thereafter, 0.4 wt. % aromatic alcohols (R=3 and R=4) were added to each surfactant solution for comparison to the controls. After agitation to generate foam, the percent of initial foam volume loss was far less for the control (without aromatic alcohols).

| SMILES | defoaming effect (foam loss, % of initial foam volume) |
| --- | --- |
| CC(CO)Cc1ccccc1 (centres unmarked) [2-methyl-3-phenylpropanol] | very mild defoaming effect |
| OCCCc1ccccc1 [3-phenylpropanol] | very mild defoaming effect |
